The whole screen tested about 52,000 sequences, of which about 210 (0.4%) were called active.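 Rule for the calls: active = gene whose silencing raises cell survival under the drug, median off-target-corrected z-score across its silencing RNAs 2 or more; inactive = the rest.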 This is one part of the list.

The values below come from PubChem BioAssay AID1347423 (Functional Genomics Laboratory (NCATS/FGL), 2020).

This assay can be described thus: Resistance to Poly (ADP-Ribose) Polymerase inhibitor: Gene Identification via Genome-wide siRNA Screen. Conditions: mouse BRCA2 R2336H ES cells, olaparib, CellTiter-Glo viability; stronger effect = higher value. In short, it runs like this:
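Mouse BRCA2 R2336H ES cells were reverse-transfected with siRNA (20 nM final), treated at 48 h with 500 nM olaparib, and read by CellTiter-Glo after 72 h. Scores: MAD-based z per siRNA, median per gene, seed off-target correction.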
(ATP-based viability assays read luminescence as a measure of living cells.)
In the case of GGCCAUUGAUCAAGACAAGTT against Glyat, the z-score was inactive: -0.633. Next, CGACAACAUUUUCCUGUCATT against Serpinc1: inactive: -1.78. Regarding CCAUAAAUCAUGAACUGGUTT against Sesn3, the z-score is inactive: -0.16. Next, GGUGUACGAACUUAGCCGGTT against Irf7: inactive: 2; GGCUAUUGCUGACCUCAGATT against Lrdd: inactive: -2.76; CGUCCUAGGAAUCUACUUUTT against Itgad: inactive: -0.183.

With CGUGCUACAGAUGCGUCAUTT against Exoc8, the z-score was inactive: -0.382. In the case of “GGUUCGUUUUUUGUUGGAATT against 1110014L17Rik” it was inactive: -0.542.

As for GGAAGACUGUAGGAUUGAGTT against 425O18-1, the z-score was inactive: 0.331. For GGGUGAGAAAAUUCACGAGTT against Tubg2, the z-score was inactive: 1.42. Next, GGAAGUUUCUCUGAGAGCUTT against Krt2-10: inactive: 0.888. Next, “AGGUCAAUAAAGAGUGUGATT against 2200001I15Rik”: inactive: 0.991; GCUUAUAACAGUUGAUGAGTT against Ndufs4: inactive: 1.79; GGAUACAAAUCCAGAUUCUTT against Pex26: inactive: 1.88.

With GGAUCUUGAUAGACUGAUGTT against Pem, the z-score was inactive: 1.51.

On to “GCAACCCUUCUGAACAGGATT against D10Ertd802e”, for which the z-score was inactive: 1.19. In the case of GGAUUUGGAGCAGGUGGAUTT against Avpr1b it was inactive: -1.69.

On to UCAGGUGAAGAUAAGGACATT against Olfr198, for which the z-score is inactive: 0.104. In the case of GGACAAAAUUAAGGAUUGCTT against Foxg1 it was inactive: 0.713; in that of CCAGACAUGAAACUUGUAUTT against Mms19l, inactive: 0.442. Next, “CCUUGUGCCGAGAUUUUCCTT against 6430401A05Rik”: inactive: 0.445. In the case of GCAUCUGUGCCGAUUAAAATT against Asb15 it was inactive: 1.53; in that of GCUCUUAAGUACUUGGUCATT against Ddx47, inactive: -2.88; in that of GGGAUUGAAUCUUCUUCGCTT against Btbd5, inactive: 0.893. Consider GGAAAUUACCCAAUAUGUATT against Birc1b, for which the z-score was inactive: -0.0372. Consider GCACGAAUUAUGGCACCGUTT against P2rx7, for which the z-score was inactive: 0.685. In the case of GCUUAAUCCUUAGUCAGCATT against F2rl2 it was inactive: -0.725.

In the case of GGGAUCUUUGAGGAGUCUUTT against Snx12, the z-score is inactive: -1.37. In the case of GGUGUUCUUCCUCUAUGAGTT against Chst2 it was inactive: -0.397; in that of GGGAUGCGUUUGACUGGUGTT against Zfp455, inactive: 0.621; in that of CCUCUUUAUCGGUGUUAUUTT against Scn11a, inactive: 1.39. GCCUGAGUAACUUUGAACATT against Rangnrf: the z-score was inactive: -0.276. Regarding GGUCAAAGGAAAAAGAAAATT against Stag1, the z-score is inactive: 0.127.

On to GGUCAUGAAAAAUGACAGCTT against Klra2, for which the z-score is inactive: 0.939. Regarding GCUGGUUAGACCCUUCCAATT against Hnf4g, the z-score was inactive: -0.785. In the case of GGUGGUCCACGAAUUCAUUTT against Plekhc1 it was inactive: -0.223; in that of CCACAAUCUGGCUCCUUCUTT against Ceacam1, inactive: 0.119. In the case of GGCGUACAGUCACUAUGAGTT against Crym it was inactive: -2.81; in that of GGCUUUGAACAGGAAAGACTT against D11Moh35, inactive: -1.74. Next, GGGAUUAGUUCUAAGACAATT against Dio3: inactive: 0.056; GGUUCAACAGAAGAGGUGGTT against Exosc2: inactive: 0.665.

With GCUCAACACCUAUUCCGACTT against Matn3, the z-score is inactive: 2.08. For the sequence GGUCAAAACAAAAGGAGGGTT against Ncf4, the z-score is inactive: 0.776. In the case of GGGCUUUCUACGAACCAAGTT against Ovol1 it was inactive: -2.72. Next, GCGAGUACCCUAAAAACAUTT against Mmp14: inactive: 0.391; GGUGGACUUGUUUAAAAAGTT against Senp5: inactive: -0.0901. In the case of GCAUAGUUUUUGACAAAACTT against Hrmt1l6, the z-score is inactive: 0.847.

For “GGGACACAUUUAAAAAAACTT against B930096L08Rik”, the z-score is inactive: 0.0862. In the case of “CCUGACACUUUCCUUACUUTT against D2Bwg0891e” it was inactive: 1.07; in that of GGCAUAUGCAGGUAUCUGUTT against Defb5, inactive: 0.333. In the case of GGCUAUUUUGCUGUACCUCTT against Gbgt1, the z-score is inactive: -2.01. Next, “GGAACACUGGAAGAAAGAUTT against 6430596G11Rik”: inactive: -0.558; CCUGAAUUCAGUCUGUUUUTT against Depdc1b: inactive: 0.405.

On to GGUUAUUGGGAUUGAGUGUTT against Hrmt1l2, for which the z-score was inactive: -0.145. CGUAAACACUCCUAACUUUTT against Hif1a: the z-score is inactive: 0.724. Next, “GCAGUAUAACUAUCUGAAATT against 1110029E03Rik”: inactive: -0.0481; GGAAAGGAAACCAAGUAAATT against Phf14: inactive: -0.396; GCUCCGAAGUGUGAAGAUUTT against Kcnn1: inactive: -1.57. Consider CCAGAUGUCGGCAGAUAACTT against Pold4, for which the z-score was inactive: -0.0711. Regarding GGGUAUCAUUGUGAUCUCUTT against Slc10a3, the z-score is inactive: -0.477. For CCUCUGAACCUGAAAAAGATT against Gm1968, the z-score is inactive: -0.441. Next, GGACAAGCAAGGUCAAUCATT against Trar1: inactive: 2.08; GGUUGAUAGGCCAAAUUGUTT against Tuba1: inactive: 0.249; GGAUCUGAAAAAAUUAAGCTT against Stat2: inactive: 0.532.

Consider GGCCAUAGAAAUAAUGCUATT against D1Ucla4, for which the z-score is inactive: 0.779.

In the case of GGUAAUGUUCUCCUUUGAATT against Dok1, the z-score was inactive: 0.00302. Take GGCUAUACCUUUGACUAUGTT against Csnk1g1: the z-score is inactive: 1.54.
